The record followed here is PubChem BioAssay AID248 (DTP/NCI, 2004).

The list does not hold the whole screen: it gathers tests that were run many times, whatever their T/C, doses with no T/C, and many T/C values between a quarter and a half above the control. Other doses and runs of a compound stand elsewhere. T/C: endpoint of the treated group in % of that of the vehicle group. Some entries give survivors of the animals treated and no T/C: the source holds a T/C of zero for them, seemingly a mark for toxic or unscored doses. Some doses without a T/C left all or most animals alive at the check, yet need not have been tolerated: survival well below the control is almost never listed, so the zero probably covers shortened survival too. Counts of survivors are from the toxicity check (mostly the fifth day) where no day follows; animals may have died later. Schedule codes are those of the source, read here as Q, the interval in days (D) or hours (H), X, the number of doses. Some schedules carry Z or #; the key to these is not given. Some entries hold several experiments; their values stand side by side, smallest first. For survival time, this PubChem deposit counts one and a half times the control or more as active, and values a quarter to a half above the control carry no call in these data; other NCI protocols may use other cut-offs.

For the experiment, the system named is L1210 leukemia ip in BDF1 mice, survival T/C. The experiment can be described thus: NCI In Vivo Anticancer Drug Screen. Data for tumor model L1210 Leukemia (intraperitoneal) in B6D2F1 (BDF1) mice. The conditions noted are these: T/C endpoint: mean survival time, higher T/C = longer survival.
Where [1] appears, read: dose: 100.0 mg/kg/injection, schedule: Q04DX003 (ip), vehicle: saline with Tween-80.
Where [2] appears, read: dose: 200.0 mg/kg/injection, schedule: Q04DX003 (ip), vehicle: saline with Tween-80.
The mark [3] stands for this setting: dose: 400.0 mg/kg/injection, schedule: Q04DX003 (ip), vehicle: saline with Tween-80.
Where [4] appears, read: dose: 400.0 mg/kg/injection, schedule: Q01DX009 (ip), vehicle: saline.

For `O=NN(CCCl)C(=O)c1cc(Cl)cc(Cl)c1`, the survivor count by setting is: under setting [1], 2 of 6; under setting [2], 1 of 6; under setting [3], 0 of 6.

In the case of `NC(=O)N(CCCCN(N=O)C(N)=O)N=O`, the T/C (dose: 26.0 mg/kg/injection, schedule: Q01DX001 (ip), vehicle: saline with Tween-80) is 140 % of control. Also, the survivor count (dose: 187.0 mg/kg/injection, schedule: Q01DX001 (ip), vehicle: saline with Tween-80) was 9 of 10; the survivor count (dose: 250.0 mg/kg/injection, schedule: Q01DX001 (ip), vehicle: saline with Tween-80) was 10 of 10; the survivor count (dose: 375.0 mg/kg/injection, schedule: Q01DX001 (ip), vehicle: saline with Tween-80) is on record as 10 of 10.

On to `CC[CH2][Sn]([CH2]CC)([CH2]CC)[O]C(=O)c1ccccc1I`, for which the survivor count runs as follows: (dose: 6.25 mg/kg/injection, schedule: Q01DX009 (ip), vehicle: Klucel (hydroxypropylcellulose) (HPC)) 0 of 3; (dose: 12.5 mg/kg/injection, schedule: Q01DX009 (ip), vehicle: Klucel (hydroxypropylcellulose) (HPC)) 0 of 3; (dose: 25.0 mg/kg/injection, schedule: Q01DX009 (ip), vehicle: Klucel (hydroxypropylcellulose) (HPC)) 0 of 3 and 0 of 6; (dose: 50.0 mg/kg/injection, schedule: Q01DX009 (ip), vehicle: Klucel (hydroxypropylcellulose) (HPC)) 0 of 6; (dose: 100.0 mg/kg/injection, schedule: Q01DX009 (ip), vehicle: Klucel (hydroxypropylcellulose) (HPC)) 0 of 6; (dose: 200.0 mg/kg/injection, schedule: Q01DX009 (ip), vehicle: Klucel (hydroxypropylcellulose) (HPC)) 0 of 6. The survivor count (dose: 400.0 mg/kg/injection, schedule: Q01DX009 (ip), vehicle: Klucel (hydroxypropylcellulose) (HPC)) is on record as 0 of 6.

Consider `CC1(C)CC(N)CC(C)(C)N1O`, for which, for the setting “dose: 400.0 mg/kg/injection, schedule: Q04DX003 (ip), vehicle: saline”, the survivor count is recorded as 0 of 4.

For the molecule `CCCn1c2c(c(=O)n(CC)c1=O)S(=O)C(OCC)C(=O)N2` (stereo not given), the survivor count (dose: 78.0 mg/kg/injection, schedule: Q01DX Z (ip), vehicle: other) is 6 of 6.

Regarding `CN(N=O)C(=O)Nc1ccc(C(=O)O)cc1`, the T/C is 128 % of control (dose: 60.0 mg/kg/injection, schedule: Q01DX001 (ip), vehicle: carboxymethylcellulose (CMC)); 140 % of control (dose: 120.0 mg/kg/injection, schedule: Q01DX001 (ip), vehicle: carboxymethylcellulose (CMC)); 129 % of control (dose: 240.0 mg/kg/injection, schedule: Q01DX001 (ip), vehicle: carboxymethylcellulose (CMC)). For the same molecule, the survivor count by setting is: (dose: 150.0 mg/kg/injection, schedule: Q01DX Z (ip), vehicle: carboxymethylcellulose (CMC)) 0 of 6; (dose: 480.0 mg/kg/injection, schedule: Q01DX001 (ip), vehicle: carboxymethylcellulose (CMC)) 1 of 10; (dose: 960.0 mg/kg/injection, schedule: Q01DX001 (ip), vehicle: carboxymethylcellulose (CMC)) 0 of 10.

Consider `CN1CN(c2ccccc2)C2(CCN(C(=O)/C=C/c3ccc(F)cc3)CC2)C1=O`, for which, under “dose: 300.0 mg/kg/injection, schedule: Q04DX003 (ip), vehicle: Klucel (hydroxypropylcellulose) (HPC)”, the survivor count is recorded as 5 of 6.

`CC(C)(C)COC(=O)CCN1CC1`: the survivor count is, setting by setting: (dose: 80.0 mg/kg/injection, schedule: Q01DX009 (ip), vehicle: Klucel (hydroxypropylcellulose) (HPC)) 6 of 6; (dose: 200.0 mg/kg/injection, schedule: Q04DX003 (ip), vehicle: Klucel (hydroxypropylcellulose) (HPC)) 1 of 6; (dose: 400.0 mg/kg/injection, schedule: Q04DX003 (ip), vehicle: Klucel (hydroxypropylcellulose) (HPC)) 0 of 6.

On to `CCOC(=O)c1ccc(NC(=O)Oc2ccc3ccccc3c2)cc1`, for which the survivor count is, setting by setting: (dose: 100.0 mg/kg/injection, schedule: Q01DX001 (ip), vehicle: saline with Tween-80) 6 of 6; under setting [1], 6 of 6; under setting [2], 6 of 6; under setting [3], 6 of 6.

Take `CNC(=O)N(C(C)C)C1CCCCC1`: the survivor count (dose: 400.0 mg/kg/injection, schedule: Q04DX003 (ip), vehicle: other) is on record as 2 of 6.

Consider `COc1cc(C)c(C(=O)Oc2cc(C)c(C(=O)O)c(O)c2C)c(OC)c1C`, for which the survivor count runs as follows: (dose: 50.0 mg/kg/injection, schedule: Q01DX009 (ip), vehicle: saline) 0 of 6; (dose: 100.0 mg/kg/injection, schedule: Q01DX009 (ip), vehicle: saline) 0 of 6; (dose: 200.0 mg/kg/injection, schedule: Q01DX009 (ip), vehicle: saline) 0 of 6; (dose: 200.0 mg/kg/injection, schedule: Q01DX Z (ip), vehicle: saline) 0 of 4; (dose: 300.0 mg/kg/injection, schedule: Q01DX Z (ip), vehicle: saline) 0 of 4; under setting [4], 0 of 6. For the same molecule, the survivor count (dose: 400.0 mg/kg/injection, schedule: Q01DX Z (ip), vehicle: saline) is on record as 0 of 4 and the survivor count (dose: 500.0 mg/kg/injection, schedule: Q01DX Z (ip), vehicle: saline) is on record as 0 of 4.

For the molecule `COC1(OC)C2CCC1C(O)C2` (stereo not given), the survivor count under setting [4] is 3 of 6.
